# Results from the supplement of paper PMC10727501.
# Counter-ions that a name gives are not always drawn. The list shows a part of the results. This data set is noisy: repeats of one test often differ as much as different tests do.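 Researchers measured free-swimming zebrafish larvae's O-bend response probability to dark flashes (naive: first five; training: remaining flashes of four 60-flash blocks; test: later 60-flash block) and OMR turning toward alternating leftward/rightward LED motion. Six treated larvae were compared to sixty 0.1% DMSO controls, with |SSMD|≥2 marking a hit.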
# Tested on: Danio rerio larvae (5 dpf, TLF)
# Assay: Prob-Test (SSMD vs DMSO vehicle); higher = higher than vehicle (e.g. higher dark-flash O-bend response probability, or better optomotor performance)
# Conditions: 10 µM; pre-incubation: 30-90 min
row,Compound,Prob-Test
1,Oc1c(Cl)cc(Cl)c2cccnc12 [Chloroxine],-1.44
2,CN1CCN(c2c(F)cc3c(=O)c(C(=O)O)cn4c3c2OCN4C)CC1 [Marbofloxacin],0.273
3,CCN1CCCC1CNC(=O)c1cc(S(=O)(=O)CC)c(N)cc1OC (centres undefined) [Amisulpride],0.351
4,Cc1c(-c2ccc(O)cc2)n(Cc2ccc(OCCN3CCCCCC3)cc2)c2ccc(O)cc12.Cl [Bazedoxifene HCl],0.671
5,Cc1cnc(Nc2ccc(N3CCN(C)CC3)cc2)nc1Nc1cccc(S(=O)(=O)NC(C)(C)C)c1,0.18
6,CCN(CC)CCOC(=O)C1(C2CCCCC2)CCCCC1 [Dicyclomine HCl],-0.336
7,OC[C@@H](O)[C@@H](O)CO [Erythritol],-0.394
8,CC(C)CC(N)=O [Isovaleramide],0.338
9,C#Cc1cccc(Nc2ncnc3cc(OCCOC)c(OCCOC)cc23)c1 [Erlotinib HCl (OSI-744)],-0.0493
